{
  "source": "patent US9066986B2",
  "about": "“Anti-CEACAM6 antibodies and uses thereof” (National Research Council of Canada, priority 2010, dated 2015)",
  "system": "BxPC3 cells",
  "assay": "In vitro MTT cell proliferation assay",
  "assay_type": "cell-based, human",
  "settings": "dosage 50 nM",
  "procedure": "Cells were left to grow for 72 h in the presence of the sdAb, then assayed for viability. Briefly, 20 μl of MTT reagent (2 mg/ml in PBS) was added to each well. After four hours, the supernatant was removed, adherent cells were lysed, and the crystals were solubilized with 100 μl dimethyl sulfoxide (DMSO, Sigma) per well. The absorbance of the formazan product was measured with a plate reader at a wavelength of 570 nm. After subtracting background absorbance, results were expressed as absorbance.\nThe medium aliquots were taken from BxPC3 cultures at the time the proliferation assays (Example 9) were performed. For evaluation of dose-dependence effect, antibodies and gemcitabine were used at concentrations of 0.4-25 μM and 0.4-50 nM, respectively. The media were applied to a 10% sodium dodecyl sulfate-polyacrylamide gel electrophoresis gel (SDS-PAGE) that was supplemented with 1.5 mg/ml gelatin. The gel was run at 150 V until the bromophenol blue dye reached the bottom of the gel. SDS was removed from the gel by washing the gel four times with 2.5% Triton X-100 for 30 min at room temperature with gentle shaking using an orbital shaker (28). […] The relative activities of the gelatinases were determined by using a densitometer (AlphaView, Fluor Chem SP, Alpha Innotech Corporation, San Leandro, Calif., USA).",
  "note": "Some of these results come from one statement about several compounds together.",
  "data": [
    {"smiles": "Nc1ccn([C@@H]2O[C@H](CO)[C@@H](O)C2(F)F)c(=O)n1", "note": "[gemcitabine, reference compound]", "values": [
      {"measurement": "BxPC3 cell proliferation decreased to", "value": "less than 10%"}
    ]}
  ]
}
